From US7087392B2, “Antiproliferative SgK reagents and methods” (The Regents of the University of California, priority 1999, dated 2006)
For at least one compound, name, drawing or mass did not settle the structure.

Experiments:
[1] = test system: rat mammary tumor cells or the human breast cancer cells; assay: Cell cycle arrest of mammary tumor cells (flow cytometry of nuclear DNA content); type: cell-based; details: approximately 36 hours after steroid addition
[2] = test system: endogenous Sgk; assay: Phosphorylation state of Sgk in treated cells; type: cell-based; details: treatment of cells; serum stimulated mammary tumor cells for the PI 3-kinase inhibitors
Description: (§1) Cotransfection of PDK1 with Sgk caused a 6-fold activation of Sgk activity, whereas, the kinase-dead form of PDK1 had no effect. […] The Ser-78 in the amino terminal domain is a third phosphorylation site and expression of the S78G Sgk mutation ablates the presence of the slowest migrating form of phosphorylated Sgk in SDS polyacrylamide gels.

[3] = test system: Sgk; assay: In vitro peptide kinase assay (Sgktide, [32P]ATP) of immunoprecipitated HA-Sgk; type: biochemical; details: activators or inhibitor of PI 3-kinase pathway
Description: Sgk is a component of the PI3 kinase cascade and is directly activated by PDK1 mediated phosphorylation of threonine 256 in the activation loop. […] To develop this kinase assay, lysates from human embryo kidney 293 cells transfected to express wild type hemagglutinin (HA)-tagged Sgk (HA-Sgk) were isolated and the Sgk immunoprecipitated with HA antibodies was used to screen a synthetic peptide library for identifying potential Sgk substrates. The immunoprecipitates were extensively washed, and incubated with the peptide in the presence of [^32P]ATP in kinase buffer (Park et al 1999). Sgk phosphorylated several peptides, and the best substrate for Sgk was KKRNRRLSVA (SEQ ID NO:01), which is named Sgktide. […] This substrate specificity is generally similar to, but not identical, with the substrate specificity for Akt, which is a well characterized down stream component of the PI 3 kinase pathway.
as §1

| Structure (SMILES) | cell cycle effect [1] | generation of hyperphosphorylated form of Sgk [2] | effect of cell treatment on Sgk enzymatic activity [3] |
| --- | --- | --- | --- |
| C[C@@H]1C[C@H]2[C@@H]3CCC4=CC(=O)C=C[C@]4(C)[C@@]3(F)[C@@H](O)C[C@]2(C)[C@@]1(O)C(=O)CO [Dexamethasone] | complete G1 cell cycle arrest | – | – |
| O=c1cc(N2CCOCC2)oc2c(-c3ccccc3)cccc12 [LY294002] | – | prevented the generation of the hyperphosphorylated form of endogenous Sgk | abolished Sgk activity |
| COC[C@H]1OC(=O)c2coc3c2[C@@]1(C)C1=C(C3=O)[C@@H]2CCC(=O)[C@@]2(C)C[C@H]1OC(C)=O [wortmannin] | – | prevented the generation of the hyperphosphorylated form of endogenous Sgk | – |
